Laboratory results from US20180282418A1.
No constants are given. Whether binding was seen depends on the method and setting. Binding seen in cells or lysates may run through a third protein. Some binding calls cover weakened binding; strength is not graded here.

By UniProt entry, the sequences of proteins in these tests, tags left out. Where a name states a change or a piece, a line headed by the entry shows the natural chain unless it says otherwise.
UniProt Q86T13: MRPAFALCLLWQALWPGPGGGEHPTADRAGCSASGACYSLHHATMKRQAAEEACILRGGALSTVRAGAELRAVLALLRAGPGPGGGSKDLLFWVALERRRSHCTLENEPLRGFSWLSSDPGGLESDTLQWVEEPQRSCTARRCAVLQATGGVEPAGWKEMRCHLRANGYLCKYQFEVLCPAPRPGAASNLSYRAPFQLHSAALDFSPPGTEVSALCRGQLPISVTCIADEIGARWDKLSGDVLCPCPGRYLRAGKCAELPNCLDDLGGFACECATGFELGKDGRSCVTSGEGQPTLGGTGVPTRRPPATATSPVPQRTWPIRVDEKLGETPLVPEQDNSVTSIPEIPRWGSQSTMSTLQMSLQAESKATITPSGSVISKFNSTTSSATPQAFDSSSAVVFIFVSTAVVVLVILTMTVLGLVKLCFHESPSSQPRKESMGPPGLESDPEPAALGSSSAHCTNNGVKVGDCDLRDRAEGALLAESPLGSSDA

Target: human CLEC14A extracellular domain protein tagged with human Fc (human) (UniProt Q86T13)
Experiment: pre-incubation of CLEC14A-ECD-Fc with antibody before MMRN2 pull-down

- binding: binds
B1: CLEC14A monoclonal antibody C4 (antibody, V domains shown)
VH: QVQLQQSGAELMKPGASVKISCKATGYTFSSYWIEWVNRRPGHGLEWIGEILPGSGSTNYNEKFKGKATFTADTSSNTAYMQLSSLTSEDSAVYYCARGGDYDEEYYLMDYWGQGTTLTVSS
VL: QIVLTQSPAIMSASPGEKVTMTCSASSSVSYMYWYQQKPGSSPRLLIYDTSNLASGVPVRFSGSGSGTSYSLTISRMEAEDAATYYCQQWSSYPLTFGAGTKLEIKR
